Measured data: PubChem BioAssay AID493246 (Drosophila RNAi Screening Center, 2011)
Test: 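Genome-wide search for dsRNAs that reduce cell number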 (primary screen). Cell system: Drosophila Kc and S2R+ cells. Knock-down reagent: long dsRNA against Drosophila genes. Measurement: 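Cell number per well after knock-down, printed as raw plate values; calls were based on per-plate z-scores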. Direction: Kc cell number and S2R+ cell number: higher = more cells remaining. Hit rule: 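Counted as a hit if cell number falls by a z-score of at least 3 within its plate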.
The screen tested about 21,000 reagents; this is an unselected part of those that have a named target and a result. In the full data, 429 (2%) are marked active. 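Values are raw and not normalised between plates; calls rest on per-plate z-scores that were not deposited.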 Names joined by + are all predicted targets of the reagent. The record does not give: the amount of reagent, the time to read-out.

CG6149 [DRSC10593]
- Kc cell number, rep 1: 1.32e6
- Kc cell number, rep 2: 1.42e6
- S2R+ cell number, rep 1: 1.29e6
- S2R+ cell number, rep 2: 1.32e6
- outcome: inactive

CG13457 [DRSC10004]
- Kc cell number, rep 1: 1.33e6
- Kc cell number, rep 2: 1.34e6
- S2R+ cell number, rep 1: 1.31e6
- S2R+ cell number, rep 2: 1.42e6
- outcome: inactive

CG10205 [DRSC05979]
- Kc cell number, rep 1: 1.45e6
- Kc cell number, rep 2: 1.54e6
- S2R+ cell number, rep 1: 8.92e5
- S2R+ cell number, rep 2: 1.02e6
- outcome: inactive

Shab (Shaker cognate b) [DRSC08013]
- Kc cell number, rep 1: 1.47e6
- Kc cell number, rep 2: 1.54e6
- S2R+ cell number, rep 1: 1.11e6
- S2R+ cell number, rep 2: 1.19e6
- outcome: inactive

Shab (Shaker cognate b) [DRSC08643]
- Kc cell number, rep 1: 1.55e6
- Kc cell number, rep 2: 1.46e6
- S2R+ cell number, rep 1: 9.48e5
- S2R+ cell number, rep 2: 1.17e6
- outcome: inactive

Shab (Shaker cognate b) [DRSC08699]
- Kc cell number, rep 1: 1.27e6
- Kc cell number, rep 2: 1.44e6
- S2R+ cell number, rep 1: 8.69e5
- S2R+ cell number, rep 2: 9.34e5
- outcome: inactive

MESK2 + CG10494 [DRSC04259]
- Kc cell number, rep 1: 1.51e6
- Kc cell number, rep 2: 1.61e6
- S2R+ cell number, rep 1: 1.20e6
- S2R+ cell number, rep 2: 3.32e5
- outcome: inactive

alphaTub85E (alpha-Tubulin at 85E) [DRSC16899]
- Kc cell number, rep 1: 1.49e6
- Kc cell number, rep 2: 1.54e6
- S2R+ cell number, rep 1: 7.62e5
- S2R+ cell number, rep 2: 8.38e5
- outcome: active

CG12994 [DRSC19192]
- Kc cell number, rep 1: 1.28e6
- Kc cell number, rep 2: 1.43e6
- S2R+ cell number, rep 1: 1.03e6
- S2R+ cell number, rep 2: 1.11e6
- outcome: inactive

CG12994 [DRSC19514]
- Kc cell number, rep 1: 1.61e6
- Kc cell number, rep 2: 1.66e6
- S2R+ cell number, rep 1: 1.21e6
- S2R+ cell number, rep 2: 1.35e6
- outcome: inactive

CG30271 [DRSC04170]
- Kc cell number, rep 1: 1.50e6
- Kc cell number, rep 2: 1.54e6
- S2R+ cell number, rep 1: 1.28e6
- S2R+ cell number, rep 2: 1.36e6
- outcome: inactive

CG10560 [DRSC14256]
- Kc cell number, rep 1: 1.80e6
- Kc cell number, rep 2: 1.84e6
- S2R+ cell number, rep 1: 1.03e6
- S2R+ cell number, rep 2: 1.16e6
- outcome: inactive

Rpt6R (Regulatory particle triple-A ATPase 6-related) [DRSC15431]
- Kc cell number, rep 1: 1.48e6
- Kc cell number, rep 2: 1.46e6
- S2R+ cell number, rep 1: 9.72e5
- S2R+ cell number, rep 2: 1.13e6
- outcome: inactive

CG6012 [DRSC02921]
- Kc cell number, rep 1: 1.65e6
- Kc cell number, rep 2: 1.65e6
- S2R+ cell number, rep 1: 1.36e6
- S2R+ cell number, rep 2: 1.49e6
- outcome: inactive

CR40354 (pseudo) [DRSC20923]
- Kc cell number, rep 1: 1.44e6
- Kc cell number, rep 2: 1.59e6
- S2R+ cell number, rep 1: 1.11e6
- S2R+ cell number, rep 2: 1.14e6
- outcome: inactive

NetA (Netrin-A) [DRSC20261]
- Kc cell number, rep 1: 1.50e6
- Kc cell number, rep 2: 1.47e6
- S2R+ cell number, rep 1: 1.09e6
- S2R+ cell number, rep 2: 1.14e6
- outcome: inactive

Srp9 (Signal recognition particle 9) [DRSC10973]
- Kc cell number, rep 1: 1.47e6
- Kc cell number, rep 2: 1.56e6
- S2R+ cell number, rep 1: 1.18e6
- S2R+ cell number, rep 2: 1.25e6
- outcome: inactive

His3.3B (Histone H3.3B) [DRSC17773]
- Kc cell number, rep 1: 1.61e6
- Kc cell number, rep 2: 1.56e6
- S2R+ cell number, rep 1: 1.02e6
- S2R+ cell number, rep 2: 1.16e6
- outcome: inactive

His3.3B (Histone H3.3B) [DRSC18673]
- Kc cell number, rep 1: 1.44e6
- Kc cell number, rep 2: 1.28e6
- S2R+ cell number, rep 1: 7.70e5
- S2R+ cell number, rep 2: 8.18e5
- outcome: inactive

CG15198 [DRSC19645]
- Kc cell number, rep 1: 1.64e6
- Kc cell number, rep 2: 1.62e6
- S2R+ cell number, rep 1: 1.10e6
- S2R+ cell number, rep 2: 1.24e6
- outcome: inactive

CG10803 [DRSC17763]
- Kc cell number, rep 1: 5.30e5
- S2R+ cell number, rep 1: 9.02e5
- outcome: inactive

Records listed above marked active:
alphaTub85E (alpha-Tubulin at 85E) [DRSC16899]
- Kc cell number, rep 1: 1.49e6
- Kc cell number, rep 2: 1.54e6
- S2R+ cell number, rep 1: 7.62e5
- S2R+ cell number, rep 2: 8.38e5
- outcome: active
